Values of other authors in patent publication US10258574B2, “Method of preparing itraconazole preparation” (CHANGZHOU PHARMACEUTICAL FACTORY CO., LTD., priority 2015, dated 2019).
Where two headings read alike, the source gives them in different places.

For `CCC(C)n1ncn(-c2ccc(N3CCN(c4ccc(OCC5COC(Cn6cncn6)(c6ccc(Cl)cc6Cl)O5)cc4)CC3)cc2)c1=O` (centres unmarked) [Itraconazole], the saturated solubility (aqueous solution at a neutral pH) is listed as less than 0.001 µg/mL and the saturated solubility (hydrochloric acid solution at pH=1) is listed as 6 µg/mL.
